According to PubChem BioAssay AID190 (DTP/NCI, 2004):
The list is a part of this screen's results and no random one: it covers a few groups of compounds. Other doses and runs of a compound may be missing. T/C: endpoint of the treated group in % of that of the vehicle group. Some doses have a count of surviving animals in place of a T/C: the source holds a T/C of zero for them, seemingly a mark for toxic or unscored doses. Some survivor counts are full or nearly so, which does not show that the dose was tolerated: the source hardly ever lists a survival T/C far under the control, and the zero likely stands for such cases as well. Counts of survivors are from the toxicity check (mostly the fifth day) where no day follows; animals may have died later. Schedules are NCI's codes, taken here to give the interval after Q, in days (D) or hours (H), and the number of doses after X. Where survival is the endpoint, the PubChem record calls one and a half times the control and up active, and a quarter to a half above the control has no call in these data; cut-offs in other NCI protocols can differ. Some T/C values are followed by the survivors on the day toxicity was checked, most often the fifth; without a count or a note in brackets, all were alive then. Some entries were tested several times; their values stand side by side, smallest first.

Tested on: AKR/Lw mice, AKR lymphoma ip, median survival T/C
Assay: NCI In Vivo Anticancer Drug Screen. Data for tumor model Lymphoma AKR (Transplanted) (intraperitoneal) in AKR/Lw mice
Settings: T/C endpoint: median survival time, higher T/C = longer survival
Procedure: The antitumor activity of compounds was measured in mice bearing transplantable tumors. Survival or tumor size were measured and the results are expressed as the measurement made in the treated group (T) divided by the measurement made in the vehicle treated control group (C). The tumor model used in this assay is Lymphoma AKR (Transplanted) (intraperitoneal) in AKR/Lw mice

[1] = dose: 50.0 mg/kg/injection, schedule: Q01DX001 (ip), vehicle: saline
[2] = dose: 1.5 mg/kg/injection, schedule: Q01DX001 (ip), vehicle: saline
[3] = dose: 3.0 mg/kg/injection, schedule: Q01DX001 (ip), vehicle: saline

CCOP(OCC)OCc1ccccc1
T/C (dose: 50.0 mg/kg/injection, schedule: Q01DX009 (ip), vehicle: saline): 114 % of control
T/C (dose: 75.0 mg/kg/injection, schedule: Q01DX009 (ip), vehicle: saline): 116 % of control
T/C (dose: 100.0 mg/kg/injection, schedule: Q01DX001 (ip), vehicle: saline, evaluated on day 45): 98 % of control
T/C (dose: 100.0 mg/kg/injection, schedule: Q01DX001 (ip), vehicle: saline, evaluated on day 60): 95 and 100 % of control [9 of 10 alive]
T/C (dose: 100.0 mg/kg/injection, schedule: Q01DX009 (ip), vehicle: saline): 107 % of control
T/C (dose: 100.0 mg/kg/injection, schedule: Q04DX003 (ip), vehicle: other): 117 % of control
T/C (dose: 100.0 mg/kg/injection, schedule: Q04DX003 (ip), vehicle: saline): 102 and 111 % of control
T/C (dose: 150.0 mg/kg/injection, schedule: Q01DX009 (ip), vehicle: saline): 116 % of control
T/C (dose: 200.0 mg/kg/injection, schedule: Q01DX001 (ip), vehicle: saline, evaluated on day 45): 105 % of control [9 of 10 alive]
T/C (dose: 200.0 mg/kg/injection, schedule: Q01DX001 (ip), vehicle: saline, evaluated on day 60): 96 [8 of 10 alive] and 102 % of control
T/C (dose: 200.0 mg/kg/injection, schedule: Q01DX009 (ip), vehicle: saline): 100 % of control
T/C (dose: 200.0 mg/kg/injection, schedule: Q04DX003 (ip), vehicle: other): 128 % of control
T/C (dose: 200.0 mg/kg/injection, schedule: Q04DX003 (ip), vehicle: saline): 100 and 119 % of control
T/C (dose: 300.0 mg/kg/injection, schedule: Q04DX003 (ip), vehicle: saline): 102 % of control
T/C (dose: 400.0 mg/kg/injection, schedule: Q01DX001 (ip), vehicle: saline, evaluated on day 45): 128 % of control
T/C (dose: 400.0 mg/kg/injection, schedule: Q01DX001 (ip), vehicle: saline, evaluated on day 60): 93 [9 of 10 alive] and 104 % of control
T/C (dose: 400.0 mg/kg/injection, schedule: Q01DX009 (ip), vehicle: saline): 105 % of control
T/C (dose: 400.0 mg/kg/injection, schedule: Q04DX003 (ip), vehicle: other): 110 % of control
T/C (dose: 400.0 mg/kg/injection, schedule: Q04DX003 (ip), vehicle: saline): 109 % of control
T/C (dose: 500.0 mg/kg/injection, schedule: Q01DX001 (ip), vehicle: saline): 115 % of control
T/C (dose: 600.0 mg/kg/injection, schedule: Q01DX001 (ip), vehicle: saline): 107 % of control [9 of 10 alive]
survivor count (dose: 800.0 mg/kg/injection, schedule: Q01DX001 (ip), vehicle: saline): 7 of 10

CC1(Cc2ccccc2)C[N+]12CCCCC2 (centres undefined)
T/C (dose: 12.5 mg/kg/injection, schedule: Q01DX001 (ip), vehicle: saline): 100 % of control
T/C (dose: 25.0 mg/kg/injection, schedule: Q01DX001 (ip), vehicle: saline): 100 % of control
T/C [1]: 94 % of control

CN(C)P(=O)(N(C)C)n1c(Nc2ccccc2)nnc1-c1ccccc1
T/C (dose: 0.75 mg/kg/injection, schedule: Q01DX001 (ip), vehicle: saline): 94 % of control
T/C [2]: 100 % of control
T/C [3]: 97 % of control

CC(C)c1nc(Nc2ccccc2)n(P(=O)(N(C)C)N(C)C)n1
T/C [2]: 97 % of control
T/C [3]: 100 % of control
T/C (dose: 6.0 mg/kg/injection, schedule: Q01DX001 (ip), vehicle: saline): 94 % of control

C[N+]1(Cc2ccccc2)CC12CCCCC2 (centres undefined)
T/C [1]: 88 % of control [8 of 10 alive]
survivor count (dose: 100.0 mg/kg/injection, schedule: Q01DX001 (ip), vehicle: saline): 1 of 10
survivor count (dose: 200.0 mg/kg/injection, schedule: Q01DX001 (ip), vehicle: saline): 0 of 10
